Measurements published in article PMC9490041 (iScience, 2022).
For some assays here: Where a sequence shows no end group, the ends are not given.

Test system: not listed separately
Assay: peptide made by a vendor (peptide synthesis; Fmoc-preloaded resins; DIC/OxymaPure)
Details: whole synthesis, UPLC-MS, scale of the general procedure 10 mg resin per well

Compound | purity (crude or final not stated) [%]
YSRQHSKLLDFDDVL | >95
YAVALIAYLSKNNHL | >95
YAELKRNTLYFSTDV | >95
YLFATLEAYSYIKGF | >95
YERLKQFVSQELVNL | >95
YQARRGKKKSGSLVL | >95
YSSPAQSVTPVQTVV | >95
YPPSSPTLSVSSTSL | >95

Test system: PSG (PSD-95), residues G322 and G335
Assay: not given
Details: double mutant cycle PSG, G322A, G335A, from stopped-flow Kd, SynGap from ITC Kd

Compound | Coupling free energy ΔΔΔGc (DDDGc) [kcal/mol]
CC(C)C[C@H](NC(=O)[C@@H](NC(=O)[C@H](CCCCN)NC(=O)[C@H](CCCCN)NC(=O)CNS(=O)(=O)c1cccc2c(N(C)C)cccc12)C(C)C)C(=O)N[C@@H](CC(=O)O)C(=O)N[C@H](C(=O)N[C@@H](CCCCN)C(=O)N[C@@H](CC(N)=O)C(=O)N[C@@H](Cc1ccc(O)cc1)C(=O)N[C@@H](CCCCN)C(=O)N[C@@H](CCC(N)=O)C(=O)N[C@H](C(=O)N[C@@H](CO)C(=O)N[C@H](C(=O)O)C(C)C)[C@@H](C)O)[C@@H](C)O [15 AA CRIPT] | -0.12
CC(C)[C@H](NC(=O)[C@H](CCCNC(=N)N)NC(=O)[C@@H](NC(=O)[C@H](CCC(N)=O)NC(=O)[C@H](CCC(N)=O)NC(=O)[C@@H](NC(=O)[C@H](Cc1c[nH]c2ccccc12)NC(=O)[C@@H]1CCCN1C(=O)[C@@H]1CCCN1C(=O)[C@H](Cc1ccccc1)NC(=O)[C@H](CO)NC(=O)CNC(=O)[C@H](CCCNC(=N)N)NC(=O)[C@H](CCC(N)=O)NC(=O)[C@H](C)NS(=O)(=O)c1cccc2c(N(C)C)cccc12)C(C)C)[C@@H](C)O)C(=O)O [15 AA SynGap] | -0.18

Test system: not listed separately
Assay: general procedure: Fmoc solid-phase peptide synthesis; Fmoc-preloaded resins; DIC/OxymaPure
Details: whole synthesis, UPLC-MS, scale of the general procedure 10 mg resin per well

Compound | crude LC-MS purity [%]
YDKPLSKKHAHSVNF | 90
YLHGHRYSSGSRSLV | 81
YYETGSLSFAGDERI | 78
YMSHSSGMPLGATGL | 87
YDVLKNMTDKAPPGV | 95
YEKAASREEPIEWEF | 72
YLADEVSASLAKQGL | 95
YHGGNLETREPTNTL | 96
YVMQDESFPASKIEL | 89
YGADIPYEDIIATEI | 92
YQEQNKVLWIPASPL | 94
YMEGLVPVGYTSLVL | 92
YKEGYNVYGIESVKI | 89
YQPYFITNSKTEVTV | 86
YFTATEPQYQPGENL | 98
YDVVAVYPNAKVELV | 96
YLFASLEAYSHIRGF | 72
YQSGPFIWIPSKEKL | 90
YEPPEPKKSRRSVLL | 98
YQETLFVGNDQVSEI | 76

Compound | crude LC-MS purity [%]
YLTGAPLATSDETSI | 90
YEPSERHTEEALRKF | 83
YVESLSSESTATSPV | 90
YFTYHTSDGDALLLL | 67
YHKGEVVDVMVIGRL | 91
YPSIVQALSLYDGLV | 92
YVRLLQSDPSSASQF | 61
YDSIEIYIPEAQTRL | 86
YLSGPYIWVPARERL | 82
YGQRDLYSGLNQRRI | 86
YSSTSPQSTDKSSTV | 94
YESIEIYIPEAQTRL | 86
YRTQMQQMHGRMVPV | 77
YEPGTELSPTLPHQL | 97
YYETSHYPASPDSWV | 81
YERAANREEALEWEF | 73
YPLVGQDIIDLQTEV | 83
YRQPLPDSNPEESSV | 97
YDMRLQMNQTLPVQV | 87
YDKRDSEEESESTAL | 97
